Consider one molecule from article PMC5572458.

In this assay the target is T1, Chromodomain Y-like (CDYL) protein (human (endogenous in SH-SY5Y)) (UniProt Q9Y232).
T1 sequence: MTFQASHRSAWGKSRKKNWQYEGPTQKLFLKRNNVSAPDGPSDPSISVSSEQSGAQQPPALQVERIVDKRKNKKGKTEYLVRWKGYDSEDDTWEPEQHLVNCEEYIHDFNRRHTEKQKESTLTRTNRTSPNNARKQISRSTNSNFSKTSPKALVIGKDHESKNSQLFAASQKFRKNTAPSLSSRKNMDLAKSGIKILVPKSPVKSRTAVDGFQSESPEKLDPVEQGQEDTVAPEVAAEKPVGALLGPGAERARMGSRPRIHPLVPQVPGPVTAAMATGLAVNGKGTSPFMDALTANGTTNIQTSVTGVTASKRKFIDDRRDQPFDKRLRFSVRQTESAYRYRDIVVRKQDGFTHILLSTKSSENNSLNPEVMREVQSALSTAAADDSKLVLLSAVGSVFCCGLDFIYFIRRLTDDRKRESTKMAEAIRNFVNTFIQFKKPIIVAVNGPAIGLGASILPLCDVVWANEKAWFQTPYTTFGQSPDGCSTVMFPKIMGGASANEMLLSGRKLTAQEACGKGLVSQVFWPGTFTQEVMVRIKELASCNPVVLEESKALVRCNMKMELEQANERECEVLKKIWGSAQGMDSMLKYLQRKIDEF
In words: co-IP; SH-SY5Y whole cell lysate (50 mM Tris-HCl pH 7.4, 150 mM NaCl, 1 mM EDTA, 0.3% NP-40), 2 ug anti-CDYL antibody 12 h at 4 C, protein A agarose beads, five washes with lysis buffer, western blot.

No constants are given. Whether binding was seen depends on the method and setting. Binding seen in cells or lysates may run through a third protein. Some entries that bind do so weakly or less than the wild type.

B1: REST (protein, UniProt Q13127 1-1097)
chain: MATQVMGQSSGGGGLFTSSGNIGMALPNDMYDLHDLSKAELAAPQLIMLANVALTGEVNGSCCDYLVGEERQMAELMPVGDNNFSDSEEGEGLEESADIKGEPHGLENMELRSLELSVVEPQPVFEASGAPDIYSSNKDLPPETPGAEDKGKSSKTKPFRCKPCQYEAESEEQFVHHIRVHSAKKFFVEESAEKQAKARESGSSTAEEGDFSKGPIRCDRCGYNTNRYDHYTAHLKHHTRAGDNERVYKCIICTYTTVSEYHWRKHLRNHFPRKVYTCGKCNYFSDRKNNYVQHVRTHTGERPYKCELCPYSSSQKTHLTRHMRTHSGEKPFKCDQCSYVASNQHEVTRHARQVHNGPKPLNCPHCDYKTADRSNFKKHVELHVNPRQFNCPVCDYAASKKCNLQYHFKSKHPTCPNKTMDVSKVKLKKTKKREADLPDNITNEKTEIEQTKIKGDVAGKKNEKSVKAEKRDVSKEKKPSNNVSVIQVTTRTRKSVTEVKEMDVHTGSNSEKFSKTKKSKRKLEVDSHSLHGPVNDEESSTKKKKKVESKSKNNSQEVPKGDSKVEENKKQNTCMKKSTKKKTLKNKSSKKSSKPPQKEPVEKGSAQMDPPQMGPAPTEAVQKGPVQVEPPPPMEHAQMEGAQIRPAPDEPVQMEVVQEGPAQKELLPPVEPAQMVGAQIVLAHMELPPPMETAQTEVAQMGPAPMEPAQMEVAQVESAPMQVVQKEPVQMELSPPMEVVQKEPVQIELSPPMEVVQKEPVKIELSPPIEVVQKEPVQMELSPPMGVVQKEPAQREPPPPREPPLHMEPISKKPPLRKDKKEKSNMQSERARKEQVLIEVGLVPVKDSWLLKESVSTEDLSPPSPPLPKENLREEASGDQKLLNTGEGNKEAPLQKVGAEEADESLPGLAANINESTHISSSGQNLNTPEGETLNGKHQTDSIVCEMKMDTDQNTRENLTGINSTVEEPVSPMLPPSAVEEREAVSKTALASPPATMAANESQEIDEDEGIHSHEGSDLSDNMSEGSDDSGLHGARPVPQESSRKNAKEALAVKAAKGDFVCIFCDRSFRKGKDYSKHLNRHLVNVYYLEEAAQGQE
Consider B1, for which the binding result was “binds”.
